Test results from patent publication US20200062817A1.
Substitutions are numbered along the chain they refer to. Results are given in words; binding and its absence hold for the method and conditions named. In cells and extracts the contact can be indirect. Some results given as binding are weak or reduced against the parent protein; the word gives no strength. Where a sequence is shown, tags or fusion partners need not be part of it.

Amino acid sequences for entries named in this document (tags omitted). A change or cut given only in a name is not applied to a line headed by its entry.
UniProt G3I8R9: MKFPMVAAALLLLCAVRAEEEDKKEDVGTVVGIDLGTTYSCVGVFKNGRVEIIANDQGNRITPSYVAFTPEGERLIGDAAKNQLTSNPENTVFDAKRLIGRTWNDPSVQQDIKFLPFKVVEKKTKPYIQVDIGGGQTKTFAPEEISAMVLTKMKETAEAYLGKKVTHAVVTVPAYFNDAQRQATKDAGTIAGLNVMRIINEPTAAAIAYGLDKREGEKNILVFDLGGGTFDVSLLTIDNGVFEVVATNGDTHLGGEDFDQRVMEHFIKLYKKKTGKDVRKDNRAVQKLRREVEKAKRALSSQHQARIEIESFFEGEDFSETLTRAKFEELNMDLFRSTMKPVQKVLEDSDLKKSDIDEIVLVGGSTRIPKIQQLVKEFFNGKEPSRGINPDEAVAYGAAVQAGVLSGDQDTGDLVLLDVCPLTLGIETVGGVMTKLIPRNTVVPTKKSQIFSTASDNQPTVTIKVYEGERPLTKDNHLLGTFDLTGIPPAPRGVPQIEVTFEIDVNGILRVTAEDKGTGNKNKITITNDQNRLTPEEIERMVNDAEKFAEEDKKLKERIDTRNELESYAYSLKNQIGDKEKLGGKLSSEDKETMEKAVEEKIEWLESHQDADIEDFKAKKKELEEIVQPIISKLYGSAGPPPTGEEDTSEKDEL

What was measured:
[1] = target: T1, hIL-27α^L162C, with C-terminal (GS)4-linker and V5 tag (human) (UniProt Q8NEV9); assay: co-immunoprecipitation with anti-V5 from 293T lysate, immunoblot against BiP
T1 sequence: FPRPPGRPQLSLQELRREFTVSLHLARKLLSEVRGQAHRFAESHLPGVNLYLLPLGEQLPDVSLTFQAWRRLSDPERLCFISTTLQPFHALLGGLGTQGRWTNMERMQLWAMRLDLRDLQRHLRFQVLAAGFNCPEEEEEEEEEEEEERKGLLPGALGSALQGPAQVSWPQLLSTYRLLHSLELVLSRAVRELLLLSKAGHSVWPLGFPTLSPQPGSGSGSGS

[2] = target: T2, human IL-27 alpha-subunit (hIL-27α), wild type, with C-terminal (GS)4-linker and V5 tag (human) (UniProt Q8NEV9); assay: as above
T2 sequence: T1 sequence with C134L

- binding [1]: binds
- binding [2]: binds
Substance: hamster BiP (immunoglobulin heavy-chain binding protein) (from UniProt G3I8R9 19-654)
